Assay results: PubChem BioAssay AID504444 (National Center for Advancing Translational Sciences (NCATS), 2011)
Among all 360,000 compounds or so, about 7,500 (2.1%) were called active. The inconclusive results got no clear call from the source; some entries with a clear call stand among them for comparison. Calls follow the shape of the dose curve; as a rule, active = well fitted inhibition curve with a large enough effect; inconclusive = small, poorly fitted or top-dose-only effect, or effect the other way; inactive = flat fitted curve, though single readings scatter. Potencies beside an inconclusive call are fits to weak or partial responses and may not hold up.

Assay: Nrf2 qHTS screen for inhibitors; also: nearly all actives have a fitted effect of over 60% in size
Conditions: A549 ARE-Fluc reporter, luciferase luminescence, 18-24 h; activity change, negative = inhibition: at 46 µM (top of the series)
In short: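 A549 ARE_Fluc cells, 5000/well, 5% FBS OPTI-MEM; compounds in dose-response, 18-24 h at 37 °C/5% CO2; CellTiter-Fluor viability read (Ex 405/Em 525), then BugLite luciferase luminescence = Nrf2 activity.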
% is scaled to controls: 0 for no effect and ±100 for the full control effect; potency is read from the fitted curve at half-maximal effect.

Structure (SMILES) | Potency | activity change, negative = inhibition
CCc1ccc(NC(=O)C(=O)N/N=C(\C)CC(=O)Nc2ccccn2)cc1 | inactive | 
COc1ccc(CCNC(=O)Cc2nn(C)c(=O)c3ccccc23)cc1OC | inconclusive: 16.4 µM [falling, single point] | 
Cc1cc(NC(=O)COC(=O)c2c(C)noc2C)ccc1Br | inconclusive: 11.6 µM [activator, partial curve, poor fit] | 
O=C(NC1CCN(Cc2ccccc2)CC1)c1cccc(S(=O)(=O)Nc2ccc(F)cc2)c1 | active: 16.4 µM | 
O=C(Nc1cccc(Cl)c1)Nc1ccc(Br)cc1F | inconclusive: 29.1 µM [falling, single point] | 
COc1ccc(-c2nnc(SC)nc2-c2ccc(OC)c([N+](=O)[O-])c2)cc1[N+](=O)[O-] | inactive | 
O=C(/C=C/c1ccccc1)Nc1ccc2c(c1)OCCO2 | inconclusive: 0.461 µM [activator, full curve, poor fit] | 
O=S(=O)(C/C(=C/CO)S(=O)(=O)c1ccccc1)c1ccccc1 | inconclusive: 23.1 µM [falling, single point] | 
O=C(Nc1cccc2ccccc12)c1nn(C23CC4CC(CC(C4)C2)C3)cc1[N+](=O)[O-] | inconclusive: 20.6 µM [falling, single point] | 
c1cc2[nH]snc2c2nc(C3CC3)nc12 | active: 7.31 µM | 
COc1ccc(NC(=O)CCCNC(=O)c2ccc(Cl)cc2)cc1S(=O)(=O)N1CCCCC1 | inconclusive: 29.1 µM [falling, single point] | 
COC(CNC(=O)c1cn(C)c2ccc(S(=O)(=O)N(C)C3CCCCC3)cc2c1=O)OC | inconclusive: 7.31 µM [falling, partial curve] | 
CCOC(=O)N1CCN(C(=O)c2ccc(CN(c3ccc(C)c(C)c3)S(C)(=O)=O)cc2)CC1 | inconclusive: 18.4 µM [falling, single point] | 
COc1ccc(/C=C/C(=O)NCCN=C2NS(=O)(=O)c3ccccc32)cc1 | inconclusive: 2.59 µM [activator, full curve, poor fit] | 
O=C(C1CCCN(S(=O)(=O)c2cccc3cccnc23)C1)N1CCN(c2ccc(F)cc2)CC1 (configuration not stated) | inconclusive: 11.6 µM [falling, single point] | 
CCC(C)C(=O)Nc1nnc(SCC(=O)NC2CCCCC2)s1 (configuration not stated) | inconclusive: 5.17 µM [falling, partial curve, poor fit] | 
CC(=O)N1CCOc2ccc(S(=O)(=O)NCc3ccc(C)cc3)cc21 | inconclusive: 18.4 µM [falling, single point] | 
CC(Sc1nc(N2CCCCC2)c2c(c1C#N)CCCC2)C(=O)O (configuration not stated) | inconclusive: 20.6 µM [falling, partial curve, poor fit] | 
O=C(Nc1cc(S(=O)(=O)N2CCCCC2)ccc1Cl)C1COc2ccccc2O1 (configuration not stated) | inactive | 
CCOc1ccc(-n2c(SCC(=O)Nc3cccc(Cl)c3)nc3c(oc4ccccc43)c2=O)cc1 |  | inactive: -11.9% [at 9.27 µM]
CCOC(=O)c1cc(S(=O)(=O)N2CCOCC2)cn1C | inactive | 
Nc1nc(SCc2ccccc2[N+](=O)[O-])c2ncn(Cc3ccccc3)c2n1 | inconclusive: 18.4 µM [falling, partial curve, poor fit] | 
CN(C)S(=O)(=O)N1CCC(Oc2cccc(C(=O)NC3CCCCCC3)c2)CC1 | active: 2.59 µM | 

Structure (SMILES) | Potency | activity change, negative = inhibition
O=C(OCC#CCSc1nnc(-c2cccc3ccccc23)o1)c1cc2ccccc2s1 | inactive | 
Cc1ccc2c(CC(=O)Nc3cccc(Cl)c3C)coc2c1 | inactive | 
Cc1nn2c(NCc3cccnc3)c3c(nc2c1-c1ccccc1)CCC3 | inconclusive: 29.1 µM [falling, single point] | 
Cc1cccc(OCCCCn2c(C3CC(=O)N(c4ccccc4Cl)C3)nc3ccccc32)c1 (configuration not stated) | inconclusive: 23.1 µM [falling, single point] | 
O=S(=O)(c1ccc(Br)s1)N1CCC(Cc2ccccc2)CC1 | inconclusive: 29.1 µM [falling, single point] | 
COc1c(C)cc(C(=O)C2CCCN(C(=O)c3ccc4cc[nH]c4c3)C2)cc1C (configuration not stated) | inconclusive: 20.6 µM [falling, partial curve, poor fit] | 
CSc1cccc(NC(=O)C2CCCN(c3ncnc4c3nc3n4CCCCC3)C2)c1 (configuration not stated) | active: 18.4 µM | 
Cc1ccc(-c2nc3cc(NC(=O)c4cc5ccccc5o4)ccc3o2)cc1 | inactive | 
O=C(CC1SC(=Nc2ccc(OC(F)F)cc2)N(CCN2CCOCC2)C1=O)Nc1ccccc1 (configuration not stated) | inconclusive: 14.6 µM [activator, partial curve, poor fit] | 
CCOc1ccc(N=Cc2ccc3ccccc3c2)cc1 | inactive | 
COCCNc1nc2c(c(=O)n(Cc3ccc(OC)cc3)c(=O)n2C)n1C | inactive | 
COc1ccc(/C=C(/C#N)C(=O)Nc2ccc(O)cc2)cc1C(=O)O | inconclusive: 2.31 µM [activator, partial curve, poor fit] | 
O=C(COc1ccc(Cl)cc1)NC1CCSC1=O (configuration not stated) | inconclusive: 8.2 µM [activator, partial curve, poor fit] | 
COc1cc(NC(=O)c2cc3ccccc3cc2O)c(OC)cc1Cl | inconclusive: 29.1 µM [falling, single point] | 
CCn1c(-c2csc3ccccc23)n[nH]c1=S | inconclusive: 23.1 µM [falling, partial curve, poor fit] | 
N#Cc1cc2c(nc1SCC1COc3ccccc3O1)CCC2 (configuration not stated) | inconclusive: 13 µM [activator, partial curve, poor fit] | 
COc1ccc(CCNC(=O)c2[nH]c(C)c(C(C)=O)c2C)cc1OC | inactive | 
CC(C)CN(CC(C)C)C(=O)C1CCCN(S(=O)(=O)c2ccc3c(c2)oc(=O)n3C)C1 (configuration not stated) | inactive | 
C[C@@H]1CC=C[C@@H]2[C@H]1C(=O)N(Cc1ccccc1)[C@H]2c1cccc(C#Cc2ccccc2)c1 | inconclusive: 29.1 µM [falling, single point] | 
Cc1cc([N+](=O)[O-])nn1Cc1ccc(F)cc1 | inconclusive: 29.1 µM [falling, single point] | 
Cc1cc(C)c2nc(N3CCCC(C(=O)NCc4cccc(Cl)c4)C3)sc2c1 (configuration not stated) | inconclusive: 2.31 µM [activator, partial curve, poor fit] | 
COc1cc(NC(=O)C(C)C)ccc1NC(=O)c1ccco1 | inconclusive: 9.2 µM [activator, partial curve, poor fit] | 
O=S(=O)(c1cccs1)N1CCN(c2cccc(Cl)c2)CC1 | inconclusive: 9.2 µM [falling, partial curve, poor fit] | 

Structure (SMILES) | Potency | activity change, negative = inhibition
COc1ccc(NS(=O)(=O)c2cccc(C(=O)NC3CCC(O)CC3)c2)cc1 (configuration not stated) | inconclusive: 14.6 µM [falling, partial curve] | 
CC(C)Cn1c(N)c(C(=O)COC(=O)CCc2nc3ccccc3c(=O)[nH]2)c(=O)n(C)c1=O | inconclusive: 9.2 µM [falling, partial curve, poor fit] | 
O=C1c2ccccc2C(=O)C1(CO)c1ccccc1 | inconclusive: 8.2 µM [activator, partial curve] | 
O=C(CSc1nnc(NC(=O)c2cc(Br)ccc2Cl)s1)NCC1CCCO1 (configuration not stated) | inactive | 
Cc1cccc(-c2nnc(SCC(=O)N3CCCC3)o2)c1 | inconclusive: 2.59 µM [activator, partial curve] | 
CCc1ccc(CNC(=O)c2ccc3nc(SCc4ccc(F)cc4)n(C)c3c2)cc1 | inconclusive: 29.1 µM [falling, single point] | 
Cn1cc(CCCC(=O)NCc2ccccc2)c2ccccc21 | inactive | 
COC(=O)c1cc2c(cc1[N+](=O)[O-])OCO2 | inconclusive: 0.103 µM [falling, full curve, poor fit] | 
COc1ccccc1/C=C/CN1CCC(n2nccc2NC(=O)CCc2ccccc2)CC1 | inconclusive: 18.4 µM [falling, single point] | 
CCOc1ccc(/C=C2\SC(=S)N(CCC(=O)N(CCO)c3ccccc3)C2=O)cc1 | inconclusive: 20.6 µM [falling, single point] | 
COc1ccc(-n2c(C)cc(/C=C3\SC(=S)NC3=O)c2C)cc1 | inconclusive: 8.2 µM [activator, partial curve] | 
CN(C(=O)COc1ncnc2c1cnn2-c1ccccc1)C1CCCCC1 | inconclusive: 29.1 µM [falling, single point] | 
OC(CNCCN1CCNCC1)Cc1ccccc1 (configuration not stated) | inactive | 
Cn1c(C(=O)NCc2cccs2)cc2oc3ccccc3c21 | inconclusive: 8.2 µM [activator, partial curve] | 
COc1ccc(C2CC(c3ccccc3OC(C)=O)=NN2C(=O)/C=C/c2ccccc2)cc1OC (configuration not stated) | inactive | 
O=C(CN1CCN(CC(=O)Nc2ccc3c(c2)OC2(CCCCC2)O3)CC1)Nc1cccc(F)c1 | inconclusive: 16.4 µM [falling, single point] | 
COc1ccc(CCNC(=O)C2CCN(C(=O)c3ccc([N+](=O)[O-])cc3)CC2)cc1 | inactive | 
CCCOC(=O)/C(=C\c1ccc([N+](=O)[O-])o1)NC(=O)c1ccccc1 | inactive | 
CCOc1ccc(NC(=O)CSc2ncc(-c3ccc(F)cc3)n2Cc2ccco2)cc1 | inconclusive: 29.1 µM [falling, single point] | 
CCCCOc1ccc(S(=O)(=O)Nc2cc(OC)ccc2OC)cc1 | inconclusive: 25.9 µM [falling, partial curve, poor fit] | 
Cc1ccc(C)c(N2CCN(C(=O)C3CCCCN3S(=O)(=O)c3ccc(F)cc3)CC2)c1 (configuration not stated) | inconclusive: 16.4 µM [falling, partial curve] | 

Of the compounds above, these contain bromine:
Structure (SMILES) | Potency | activity change, negative = inhibition
Cc1cc(NC(=O)COC(=O)c2c(C)noc2C)ccc1Br | inconclusive: 11.6 µM [activator, partial curve, poor fit] | 
O=C(Nc1cccc(Cl)c1)Nc1ccc(Br)cc1F | inconclusive: 29.1 µM [falling, single point] | 
O=S(=O)(c1ccc(Br)s1)N1CCC(Cc2ccccc2)CC1 | inconclusive: 29.1 µM [falling, single point] | 
O=C(CSc1nnc(NC(=O)c2cc(Br)ccc2Cl)s1)NCC1CCCO1 (configuration not stated) | inactive | 
